Values from PubChem BioAssay AID652259 (Drosophila RNAi Screening Center, 2013).

Aim: 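Identify new Wingless signalling regulators in fly cells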 (primary screen)
System: Drosophila clone 8 imaginal disc epithelial cells
Knock-down reagent: long dsRNA against Drosophila genes
Challenge: pathway stimulated by co-transfected Wingless expression plasmid
Measured: 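Dual luciferase reads per well after Wingless plasmid stimulation: reporter firefly light and Renilla control light; activity is firefly divided by Renilla, a ratio not deposited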
Scale: firefly reporter light: higher = more Wg reporter light, before normalisation; Renilla control light: higher = more transfected or surviving cells
Call rule: 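a knock-down is a candidate when at least two out of four statistical tests show it departing from its plate mean; one test alone signals a weak candidate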
Meaning of the calls: active = candidate regulator (raises or lowers reporter); inactive = not a candidate
The deposit covers about 22,000 reagents; below is an unselected part of those with a known target gene and a result. In the full data, 233 (1.1%) got an active call. 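Light values are raw, unnormalised plate reads; the ratio scores behind the reporter calls were not deposited.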 A plus sign joins genes that one reagent is predicted to hit. Not stated in the record: the amount of reagent, the time to read-out, the dose of the treatment.

Gene,amplicon,"reporter change call, replicate 1","firefly reporter light, replicate 1","firefly reporter light, replicate 2","Renilla control light, replicate 1","Renilla control light, replicate 2",Outcome
CG13579,DRSC04215,,2810,6947,930,2995,inactive
mRpL55,DRSC14764,,15733,,2912,,inactive
CG14327,DRSC14806,,18456,,5267,,inactive
Lam,DRSC03359,,1115,3992,194,285,inactive
CG43153,DRSC01189,,18825,,10041,,inactive
CG7299,DRSC03043,,2436,10530,1385,4667,inactive
acj6,DRSC20304,,3034,8150,1314,3115,inactive
Jon74E,DRSC10617,,5552,,2768,,inactive
CG5707,DRSC08573,,18535,,4918,,inactive
CG7514,DRSC08597,,1764,6250,1002,2697,inactive
CG31544 (retired record),DRSC12466,,1862,,1068,,inactive
GV1,DRSC08228,,7810,,3053,,inactive
eca,DRSC22290,,7.70e5,7.58e5,1.76e5,2.09e5,inactive
Spase25,DRSC19776,,2192,6109,922,1909,inactive
mRpS34,DRSC09918,,6778,,2746,,inactive
CG3517,DRSC15492,,12684,,2592,,inactive
Gr22f,DRSC00076,,28337,,12274,,inactive
CG43367 + asRNA:CR32252,DRSC21715,,5.20e5,4.58e5,2.65e5,1.40e5,inactive
CG3999,DRSC15534,,15040,,3117,,inactive
CG4572,DRSC15603,,1669,5297,856,2161,inactive
mRpL36,DRSC10337,,1795,4932,1056,2103,inactive
CG8249,DRSC07125,,4914,,2105,,inactive
CG34253 + lncRNA:CR32194,DRSC09531,,2908,,1548,,inactive
CG18265,DRSC10310,,3757,,1868,,inactive
Gk2,DRSC08610,,14524,,3436,,inactive
Cyt-b5,DRSC07392,,14146,,2646,,inactive
CG18302,DRSC02663,,2113,7200,592,3301,inactive
mei-38,DRSC18564,,24203,,16586,,inactive
fs(1)Yb,DRSC18777,,21723,,13433,,inactive
spin,DRSC07176,,11491,,5024,,inactive
spin,DRSC22271,,4.39e5,4.78e5,1.65e5,1.82e5,inactive
cv-c,DRSC14969,,10480,,3232,,inactive
cv-c,DRSC14970,,19877,,6464,,inactive
cv-c,DRSC14971,,13041,,2715,,inactive
cv-c,DRSC14972,,12912,,2256,,inactive
cv-c,DRSC14973,,19754,,2962,,inactive
cv-c,DRSC16428,,9864,,3462,,inactive
CG17344,DRSC02607,,1953,6694,861,3286,inactive
wit,DRSC08741,,4528,,2200,,inactive
Rev1,DRSC08264,,17305,,5609,,inactive
CG1208,DRSC12190,,5409,,2097,,inactive
CG14856,DRSC14980,,15867,,4043,,inactive
Rab11,DRSC16809,,13142,,5032,,inactive
CG14177 (retired record),DRSC10176,,10355,7.61e5,4577,3.46e5,inactive
CG2861,DRSC18229,,15892,,9098,,inactive
G6P,DRSC00414,,1793,6832,711,2803,inactive
thw,DRSC12552,,20224,,4304,,inactive
CG16972,DRSC02550,,16330,,2349,,inactive
CG31883,DRSC02561,,15845,,2844,,inactive
ppk,DRSC03595,,2032,5857,1101,2392,inactive
CG34460,DRSC06974,,6408,,2395,,inactive
Pfdn4,DRSC09761,,1444,9216,1427,3524,inactive
nmdyn-D6,DRSC20355,,20016,,10603,,inactive
Gadd45,DRSC06033,,2685,9849,480,2332,inactive
shu,DRSC04484,,10488,,3752,,inactive
btd,DRSC18747,,25624,,9392,,inactive
Nup358,DRSC14410,,5141,9555,1418,2433,inactive
Vps8,DRSC09705,,1429,6280,1148,3076,inactive
CG32111 (retired record),DRSC09203,,3088,,1152,,inactive
Idh3b,DRSC16040,,2325,8838,1094,2700,inactive
unc-45,DRSC15449,,18306,,5104,,inactive
Rab35,DRSC20691,,2717,6731,1088,2827,inactive
p47,DRSC06046,,15258,,5587,,inactive
FMRFa,DRSC07428,,2864,6763,651,1926,inactive
CG9518,DRSC20194,,15117,,6909,,inactive
CG12817 + CG12420,DRSC22814,,4.58e5,4.48e5,2.16e5,2.64e5,inactive
CG7407,DRSC11824,,7669,,3090,,inactive
CG14718,DRSC14941,,13517,,3547,,inactive
Gyc76C + CG42637,DRSC11180,,4294,,1719,,inactive
Pat1,DRSC17750,,1970,7008,717,1909,inactive
Nmt,DRSC11236,,2204,8491,1608,4033,inactive
CG3294,DRSC00590,,7912,,3136,,inactive
CG32302,DRSC08340,,4124,,1921,,inactive
CG8407,DRSC07167,,8528,,3363,,inactive
Hsp60C,DRSC03036,,2251,5686,920,954,inactive
CG42816,DRSC11230,,5938,,3065,,inactive
Naa20A,DRSC19579,,3616,4772,1161,1400,inactive
CG2129,DRSC18209,,3270,6234,1143,1442,inactive
CG15740,DRSC19706,,24487,,7529,,inactive
CG5781,DRSC02893,,1767,5623,780,2394,inactive
CG32767,DRSC18386,Wg reporter activity lowered,10733,,14298,,active
CG10979,DRSC12153,,15194,,3952,,inactive
trio,DRSC07928,,2506,,520,,inactive
trio,DRSC08527,,8027,,2336,,inactive
trio,DRSC08740,,5205,,2636,,inactive
ND-B14.5AL,DRSC11795,,14875,,5235,,inactive
kek1,DRSC03551,,2377,10887,1094,2631,inactive
CG32773 (retired record),DRSC17330,,4554,,1392,,inactive
bug,DRSC07137,,8554,,3315,,inactive
CG12289,DRSC09874,,7648,,3904,,inactive
CG12009,DRSC08217,,8084,,3461,,inactive
CG15167,DRSC02468,,2977,6253,774,2641,inactive
CG14406,DRSC19592,,26194,,8605,,inactive

Called active, among the entries above:
Gene,amplicon,"reporter change call, replicate 1","firefly reporter light, replicate 1","firefly reporter light, replicate 2","Renilla control light, replicate 1","Renilla control light, replicate 2",Outcome
CG32767,DRSC18386,Wg reporter activity lowered,10733,,14298,,active
